# In the supplement of paper PMC4604168 (melanoma cell lines):
# The list shows a part of the results. Many values rest on one well or one pass, so single values are uncertain.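 Imaging used 1,536-well plates; nuclei positive for cleaved PARP by antibody were divided by total DNA-stained nuclei to yield the apoptosis fraction. Doses for screening kept most cells viable, and cell lines differ markedly in resting and induced cleaved-PARP levels.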
# Test system: UACC257
# Experiment: cleaved PARP positive nuclei fraction relative to DMSO control; melanoma cells; higher = more apoptosis
# Settings: library dose: low library concentration; 72 h
row,SMILES,cleaved PARP positive nuclei fraction [%]
1,"NC(=O)Nc1cc(-c2cccc(F)c2)sc1C(=O)N[C@H]1CCCNC1 + Cn1cc(/C=C2\C(=O)Nc3cccnc32)c2ccccc21 [GW441756] (first compound 0.02 µM, partner dose 0.4 µM)",41.5
2,"CO[C@@H]1[C@H](N(C)C(=O)c2ccccc2)C[C@H]2O[C@]1(C)n1c3ccccc3c3c4c(c5c6ccccc6n2c5c31)C(=O)NC4 [Midostaurin] + O=C(O)C(=O)Nc1sc2c(c1C(=O)O)CCNC2 [TCS401] (first compound 0.08 µM, partner dose 1.66667 µM)",115
3,"C#Cc1cccc(Nc2ncnc3cc(OCCOC)c(OCCOC)cc23)c1 [erlotinib] + COc1cc2ncnc(Nc3ccc(Oc4ccccc4)cc3)c2cc1OC [SrcI1] (first compound 0.8 µM, partner dose 2 µM)",136
4,"Cn1cncc1[C@@](N)(c1ccc(Cl)cc1)c1ccc2c(c1)c(-c1cccc(Cl)c1)cc(=O)n2C [tipifarnib] + COc1ccc2c(c1)CCC1C2CCC2(C)C(NCCCCCCN3C(=O)C=CC3=O)CCC12 [U73122] (first compound 0.01 µM, partner dose 0.4 µM)",129
5,"O=C(Nc1cccc(Cl)c1)Nc1ncc(CCNc2ncnc3ccsc23)s1 + O=C(O)C(=O)Nc1sc2c(c1C(=O)O)CCNC2 [TCS401] (first compound 0.0008 µM, partner dose 1.66667 µM)",76.7
6,"C=CCn1c(=O)c2cnc(Nc3ccc(N4CCN(C)CC4)cc3)nc2n1-c1cccc(C(C)(C)O)n1 + O=S(=O)(c1ccccc1)N(CC(F)(F)F)c1ccc(C(O)(C(F)(F)F)C(F)(F)F)cc1 [T0901317] (first compound 0.02 µM, partner dose 1.4 µM)",117
7,"CC(C)(C)c1cnc(CSc2cnc(NC(=O)C3CCNCC3)s2)o1 + c1cc(-c2cnn3cc(-c4ccc(OCCN5CCCCC5)cc4)cnc23)ccn1 [Dorsomorphin] (first compound 0.01 µM, partner dose 0.4 µM)",332
8,"O=C(CCCCCCC(=O)Nc1ccccc1)NO [vorinostat] + O=S(=O)(c1ccccc1)N(CC(F)(F)F)c1ccc(C(O)(C(F)(F)F)C(F)(F)F)cc1 [T0901317] (first compound 0.08 µM, partner dose 1.4 µM)",77.6
9,"Cn1c(Nc2ccc(C(F)(F)F)cc2)nc2cc(Oc3ccnc(-c4ncc(C(F)(F)F)[nH]4)c3)ccc21 + COC(=O)c1sccc1S(=O)(=O)Nc1ccc(Nc2ccccc2)cc1OC [GSK0660] (first compound 0.08 µM, partner dose 1 µM)",1350
10,"C#Cc1cccc(Nc2ncnc3cc(OCCOC)c(OCCOC)cc23)c1 [erlotinib] + O=C(Nc1ccccc1)c1cc([N+](=O)[O-])ccc1Cl [GW9662] (first compound 0.8 µM, partner dose 2 µM)",137
11,"Cc1cc(N2CCOCC2)cc2[nH]c(-c3c(NC[C@@H](O)c4cccc(Cl)c4)cc[nH]c3=O)nc12 + O=C(O)C(=O)Nc1sc2c(c1C(=O)O)CCNC2 [TCS401] (first compound 0.2 µM, partner dose 1.66667 µM)",125
12,"Nc1cccc2c1CN(C1CCC(=O)NC1=O)C2=O (stereo not given) [lenalidomide] + Oc1nc(-c2ccc(C(F)(F)F)cc2)nc2c1CSCC2 [XAV939] (first compound 1 µM, partner dose 2 µM)",143
13,"Cn1c(Nc2ccc(C(F)(F)F)cc2)nc2cc(Oc3ccnc(-c4ncc(C(F)(F)F)[nH]4)c3)ccc21 + COc1ccc(COc2ccc(Cc3cnc(N)nc3N)cc2OC)cc1 [GW2580] (first compound 0.08 µM, partner dose 1 µM)",496
14,"C[C@]1(c2nc3c(C(N)=O)cccc3[nH]2)CCCN1 [Veliparib] + CC(C)CCN1c2nc(Nc3cc(F)c(O)c(F)c3)ncc2N(C)C(=O)C1C [BID1870] (first compound 1.4 µM, partner dose 0.2 µM)",98.9
15,"C=CCn1c(=O)c2cnc(Nc3ccc(N4CCN(C)CC4)cc3)nc2n1-c1cccc(C(C)(C)O)n1 + CCc1ccc(CCOc2ccc(CC3SC(=O)NC3=O)cc2)nc1 [pioglitazone] (first compound 0.02 µM, partner dose 2 µM)",65.2

# A different layout for some results above:
row	SMILES	cleaved PARP positive nuclei fraction [%]
2	CO[C@@H]1[C@H](N(C)C(=O)c2ccccc2)C[C@H]2O[C@]1(C)n1c3ccccc3c3c4c(c5c6ccccc6n2c5c31)C(=O)NC4 [Midostaurin] + O=C(O)C(=O)Nc1sc2c(c1C(=O)O)CCNC2 [TCS401] (first compound 0.08 µM, partner dose 1.66667 µM)	115
13	Cn1c(Nc2ccc(C(F)(F)F)cc2)nc2cc(Oc3ccnc(-c4ncc(C(F)(F)F)[nH]4)c3)ccc21 + COc1ccc(COc2ccc(Cc3cnc(N)nc3N)cc2OC)cc1 [GW2580] (first compound 0.08 µM, partner dose 1 µM)	496
